Results are given in words; binding and its absence hold for the method and conditions named. In cells and extracts the contact can be indirect. Binding can be weak; no strength is given.
Biological target: dynein intermediate chain (Xenopus (endogenous in Xenopus oocytes))
Assay: co-IP; Xenopus oocyte lysates (10 mM HEPES pH 7.4, 100 mM potassium acetate, 10 mM magnesium acetate, 5 mM EGTA, 0.1% NP-40, RNasin) precleared, incubated overnight with mouse anti-DIC (74.1) or mouse IgG prebound to Protein A-Sepharose; bound proteins blotted; control oocytes and oocytes expressing p150^Glued CC1

B1: Staufen (protein, UniProt Q6GM35 1-708)
chain: MSQAPKSPAAPLPKIQILNKNQHSPLPQPLSIPSTASPLPSENAGRPLQNSALPSPSVTSSGPTAVSSNMANPKEKTPMCLVNELARFNKIQPVYKLLSEQGPAHSKVIPLGRWQDYSLLERVGEERPRQMFTVQLTLGDQYWEAEGTSIKKAQHAAAAKALEGTKYPKPTVRPVRDSITPTVELNALCMKLGRKPIYKPLDPYTGIRSAYNYNMRGGGYPPRYFYPFPVAPILYQVELSVGGQQFHGKGRTRQAAKHDAAARALKSLHHEPLPDKPALNGKAADEENLNKSEISQVFEIALKRNMSVNFEVTKETGPPHMKSFLTKVIVGEFLGEGEGKSKKISKKNAAIAVLEELRKLPPLPTVEKMRPKIKKKTKSIVKLPTSPEYGQGMNPISRLAQIQQAKKGKEPEYILITERGLPRRREFVMQVKVGNHAAEGSGTNKKVAKRNAAENMLEILGFKVPPPPPKPALKTEEKLPVKKPGDGRKVTFYEPGSGEDGANHNKDDEFRMPYHSHQQLPAGILPMVPEVAQAVGVNQGLHTKEFNRVAPNPAKATVTAMIARELLYAGISPTADTILKNNNAAGHVLRGPFTRPSEQLNYLSRVQGLEVEYKDFPKNNKNEFVSLINCSSQPPLISHGIGKDVESCHDMAALNILKLLSELDQQNPEMPRTGNGPMSVCVKPEMESDPLLKPANSNTLGQTLDSTA
- binding: binds

Reference: publication PMC3640089
